Data published in patent publication US9844599B2, “Nitric oxide releasing produgs of therapeutic agents” (priority 2013, dated 2017).

Test: in vivo
Conditions: male, Sprague-Dawley, rat

concentration at 2 h: > 30000 ng/mL
concentration at 4 h: > 20000 ng/mL
concentration at 8 h: < 15000 ng/mL
Tmax (po, 10 mg/kg): < 15 min
SMILES: COc1ccc2cc([C@H](C)C(=O)O)ccc2c1 [Naproxen, naproxen]
